The record followed here is patent US4070492A, “Propranolol assay” (priority 1977, dated 1978).

In the data set the test system is antisera against d,l-propranolol and l-propranolol. As to the kind of experiment: Sensitivity of radioimmunoassay for d,l-propranolol and its l-isomer in phosphate-buffered saline and serum. Further details: species or system rabbit. Particulars: for detection limit of radioimmunoassay: both antisera; for upper limit of linearity of radioimmunoassay: linear up to.

As to `CC(C)NCC(O)COc1cccc2ccccc12` (racemic) [propranolol], the “detection limit of radioimmunoassay” value came out at 10 pg and the “upper limit of linearity of radioimmunoassay” value was 5,000 pg.
In the case of `CC(C)NC[C@H](O)COc1cccc2ccccc12` [l-propranolol], the “detection limit of radioimmunoassay” value is 10 pg and the “upper limit of linearity of radioimmunoassay” value is given as 2,000 pg.
